# No constants are given. Whether binding was seen depends on the method and setting. Binding seen in cells or lysates may run through a third protein. A result given as binding can be weak or reduced; the word gives no strength. Sequences can lack the tags named with a protein.
# Chains of the proteins cited; added tags and fusions are not shown. Lines headed by an entry give the natural chain unless they say otherwise; changes in a name come on top.
# UniProt Q9QUS9: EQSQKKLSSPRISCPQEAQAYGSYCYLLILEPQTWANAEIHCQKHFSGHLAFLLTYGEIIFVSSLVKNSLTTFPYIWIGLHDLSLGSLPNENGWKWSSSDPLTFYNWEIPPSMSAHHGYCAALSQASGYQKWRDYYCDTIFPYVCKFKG
# UniProt O09049: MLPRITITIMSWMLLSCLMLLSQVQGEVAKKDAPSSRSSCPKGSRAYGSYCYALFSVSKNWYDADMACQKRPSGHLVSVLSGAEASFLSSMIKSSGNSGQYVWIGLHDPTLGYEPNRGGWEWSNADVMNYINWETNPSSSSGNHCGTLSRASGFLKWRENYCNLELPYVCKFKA
# UniProt O09037: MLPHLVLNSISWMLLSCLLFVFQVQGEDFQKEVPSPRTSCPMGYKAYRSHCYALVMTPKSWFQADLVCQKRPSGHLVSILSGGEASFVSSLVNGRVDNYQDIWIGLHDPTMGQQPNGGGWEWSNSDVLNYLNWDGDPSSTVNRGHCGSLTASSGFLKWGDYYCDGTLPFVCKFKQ
# UniProt P35230: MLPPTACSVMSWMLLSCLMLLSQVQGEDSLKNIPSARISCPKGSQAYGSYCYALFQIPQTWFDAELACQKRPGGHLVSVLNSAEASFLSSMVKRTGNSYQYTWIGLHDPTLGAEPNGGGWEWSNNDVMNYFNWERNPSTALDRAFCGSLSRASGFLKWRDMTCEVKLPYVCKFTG
# What was measured:
# [1] = biological target: T1, N-terminally myc-tagged full-length murine CCPG1 (mouse) (UniProt Q640L3); test: co-IP
# T1 sequence: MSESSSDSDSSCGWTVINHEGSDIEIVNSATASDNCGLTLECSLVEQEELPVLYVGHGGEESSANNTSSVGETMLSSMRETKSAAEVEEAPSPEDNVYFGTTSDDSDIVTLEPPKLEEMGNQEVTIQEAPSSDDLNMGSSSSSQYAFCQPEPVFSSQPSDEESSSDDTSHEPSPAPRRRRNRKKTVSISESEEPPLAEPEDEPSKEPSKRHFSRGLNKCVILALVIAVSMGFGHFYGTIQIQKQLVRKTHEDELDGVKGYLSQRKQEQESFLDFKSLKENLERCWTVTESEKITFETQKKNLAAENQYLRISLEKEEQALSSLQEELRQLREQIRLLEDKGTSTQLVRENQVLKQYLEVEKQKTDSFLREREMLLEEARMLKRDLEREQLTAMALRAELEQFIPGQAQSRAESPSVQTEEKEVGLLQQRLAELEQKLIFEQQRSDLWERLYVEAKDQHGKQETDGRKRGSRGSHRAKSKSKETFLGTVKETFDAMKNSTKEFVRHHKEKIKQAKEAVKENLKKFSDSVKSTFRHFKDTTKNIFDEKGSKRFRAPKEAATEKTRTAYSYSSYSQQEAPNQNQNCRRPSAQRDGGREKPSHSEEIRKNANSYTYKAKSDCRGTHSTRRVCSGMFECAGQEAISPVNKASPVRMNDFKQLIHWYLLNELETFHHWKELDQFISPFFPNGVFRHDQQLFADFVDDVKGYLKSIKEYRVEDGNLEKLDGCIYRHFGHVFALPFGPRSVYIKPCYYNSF
# [2] = biological target: T2, C-terminally V5-tagged CCPG1 (UniProt Q640L3); test: co-IP
# T2 sequence: T1 sequence
binding [1],binding [2],Substance
–,binds,GFP-fused murine REG3D (from UniProt Q9QUS9)
–,binds,GFP-fused murine REG3G (from UniProt O09049)

# Continued, substance first:
Substance,binding [1],binding [2]
GFP-REG3A (stably expressed in HEK293FT) (from UniProt O09037),binds,–
GFP-fused murine REG3A (in PDAC cells) (from UniProt O09037),–,binds
GFP-fused murine REG3B (from UniProt P35230),–,binds

# From article doi:10.1101/2025.03.24.644918
